Measurements from patent US20250115872A1, “GENERATION OF BROWN ADIPOCYTES FROM HUMAN PLURIPOTENT STEM CELLS” (The Brigham and Women's Hospital, Inc., priority 2022, published 2025).
For at least one compound, name, drawing or mass did not settle the structure.

How the values were obtained:
Assay type in all cases: cell-based, human
BA precursors = assay: Thermogenesis assay with ERthermAC dye in precursors; conditions: 10 μM forskolin or vehicle, day 20 of differentiation
iPSC-BAs [1] = assay: Seahorse assay, oxygen consumption rate in iPSC-BAs; conditions: 10 μM forskolin together with 1.5 μM Oligomycin, 40 day-old replated cultures
Protocol: FIGS. 8A-D: FIG. 8A—RT-qPCR analysis for UCP1 on 40 day old replated iPSC-derived adipogenic cultures treated with 10 μM forskolin or vehicle control DMSO treatment for 4 hours. Relative gene expression is shown as relative change to undifferentiated iPSC. Mean±SD, n=5, t-test, p<0.01. FIG. 8B—Measurement of glycerol released in culture medium 40 day old replated iPSC-derived adipogenic cultures treated with 10 μM forskolin or vehicle control DMSO treatment for 4 hours. Glycerol amount normalized using total protein amount. Mean±SD, n=4, t-test, p≤0.01. FIG. 8C—Measurement of fluorescent intensity of thermosensitive ERthermAC dye in iPSC derived precursors on day 20 of differentiation and brown adipocytes after 40 days of replating in response to 10 μM forskolin or vehicle control DMSO. Each data point represents Mean±SD, n=3, t-test, p=0.0009. […]
Agilent Seahorse XFe96 Analyzer was used to measure oxygen consumption in live iPSC-BAs and precursor cells following manufacturer's instructions. […] Basal respiration was measured 3 times in the assay medium. […] Cells were then treated with 10 μM Forskolin (Sigma-Aldrich, F6886) or DMSO (Sigma-Aldrich, D2650) and oxygen consumption rate (OCR) was measured for 70 minutes (12 measurements). […] Cells were automatically segmented using custom code in Fiji and number of DAPI and mCherry positive cells were quantified. […]

iPSC-BAs [2] = assay: Thermogenesis assay with ERthermAC dye in iPSC-BAs; conditions: 10 μM forskolin, compared to vehicle-treated cells
iPSC derived precursors = assay: Seahorse assay, oxygen consumption rate in precursors; conditions: 10 μM forskolin after Oligomycin, day 20 of differentiation
iPSC-BAs [3] = assay: RT-qPCR analysis for UCP1 in 40 day-old replated iPSC-derived adipogenic cultures; conditions: 10 μM forskolin for 4 hours, compared to vehicle-treated cells; 40 day-old replated adipogenic cultures
iPSC-BAs [4] = assay: Glycerol release assay (lipolysis); conditions: 10 μM forskolin for 4 hours, compared to vehicle control; normalized to total protein

C=C[C@@]1(C)CC(=O)[C@]2(O)[C@@]3(C)[C@@H](O)CCC(C)(C)[C@@H]3[C@H](O)[C@H](OC(C)=O)[C@@]2(C)O1 [forskolin]
ERthermAC fluorescence intensity (BA precursors): no change in intensity
oxygen consumption rate (OCR) (iPSC-BAs [1]): the OCR increased
ERthermAC fluorescence intensity (lower intensity = higher temperature) (iPSC-BAs [2]): reduction in dye intensity
oxygen consumption rate (OCR) (iPSC derived precursors): did not show increased OCR
UCP1 mRNA levels (iPSC-BAs [3]): increased UCP1 mRNA levels
glycerol released in the medium (iPSC-BAs [4]): increased glycerol release
